Here are results for 1 substance from paper PMC6232482.

Assay in all cases: co-IP
One experiment concerns the target T1, eGFP-IRF2 (UniProt P14316).
T1 sequence: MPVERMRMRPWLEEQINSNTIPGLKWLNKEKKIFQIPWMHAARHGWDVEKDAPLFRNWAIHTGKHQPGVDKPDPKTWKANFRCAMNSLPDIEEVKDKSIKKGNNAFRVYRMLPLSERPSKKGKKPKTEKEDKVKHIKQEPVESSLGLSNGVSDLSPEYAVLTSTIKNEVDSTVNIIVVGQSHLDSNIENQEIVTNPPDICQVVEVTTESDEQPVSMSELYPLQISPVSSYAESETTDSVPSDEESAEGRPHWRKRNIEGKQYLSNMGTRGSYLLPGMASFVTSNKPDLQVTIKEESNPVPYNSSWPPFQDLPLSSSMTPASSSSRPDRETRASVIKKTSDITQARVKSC

Experiment [1] has as its target T2, eGFP-IRF3(1-190), N-terminal portion (UniProt Q14653).
T2 sequence: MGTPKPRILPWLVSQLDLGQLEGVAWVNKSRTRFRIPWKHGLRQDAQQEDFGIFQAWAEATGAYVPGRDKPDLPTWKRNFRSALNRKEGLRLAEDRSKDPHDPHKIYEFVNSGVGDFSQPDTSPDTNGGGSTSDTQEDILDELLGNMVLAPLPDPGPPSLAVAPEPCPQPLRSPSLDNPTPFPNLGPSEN

The target in experiment [2] is T3, eGFP-IRF3(190-427), C-terminal portion (UniProt Q14653).
T3 sequence: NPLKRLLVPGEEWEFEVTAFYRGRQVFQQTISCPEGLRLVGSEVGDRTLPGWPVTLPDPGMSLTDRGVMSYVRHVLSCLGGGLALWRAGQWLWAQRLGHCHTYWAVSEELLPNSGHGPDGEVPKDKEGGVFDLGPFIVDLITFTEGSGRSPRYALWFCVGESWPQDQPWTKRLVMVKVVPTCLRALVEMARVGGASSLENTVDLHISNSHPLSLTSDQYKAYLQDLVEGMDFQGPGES

Experiment [3] has as its target T4, eGFP-IRF3(S385A/S386A), dimerization-deficient mutant (UniProt Q14653).
T4 sequence: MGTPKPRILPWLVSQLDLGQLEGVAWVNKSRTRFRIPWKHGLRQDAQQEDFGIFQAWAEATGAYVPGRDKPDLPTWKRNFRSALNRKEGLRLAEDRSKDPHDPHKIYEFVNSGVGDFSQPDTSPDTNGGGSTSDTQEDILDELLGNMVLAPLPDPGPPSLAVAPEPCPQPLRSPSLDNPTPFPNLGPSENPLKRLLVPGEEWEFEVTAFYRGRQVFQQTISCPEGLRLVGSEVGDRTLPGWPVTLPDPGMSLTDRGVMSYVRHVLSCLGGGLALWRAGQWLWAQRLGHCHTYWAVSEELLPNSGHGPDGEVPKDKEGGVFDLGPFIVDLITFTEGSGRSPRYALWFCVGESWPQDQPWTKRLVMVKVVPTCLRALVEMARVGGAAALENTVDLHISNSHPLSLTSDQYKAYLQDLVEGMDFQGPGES

Experiment [4] concerns the target T5, eGFP-IRF3(S385A/S386A-R211A/R213A) (UniProt Q14653).
T5 sequence: T4 sequence with R211A, R213A

The target in experiment [5] is T6, eGFP-IRF3(S385A/S386A-R285A/H288A/H290A) (UniProt Q14653).
T6 sequence: T4 sequence with R285A, H288A, H290A

For another experiment, the target named is T7, eGFP-IRF7 (UniProt Q92985).
T7 sequence: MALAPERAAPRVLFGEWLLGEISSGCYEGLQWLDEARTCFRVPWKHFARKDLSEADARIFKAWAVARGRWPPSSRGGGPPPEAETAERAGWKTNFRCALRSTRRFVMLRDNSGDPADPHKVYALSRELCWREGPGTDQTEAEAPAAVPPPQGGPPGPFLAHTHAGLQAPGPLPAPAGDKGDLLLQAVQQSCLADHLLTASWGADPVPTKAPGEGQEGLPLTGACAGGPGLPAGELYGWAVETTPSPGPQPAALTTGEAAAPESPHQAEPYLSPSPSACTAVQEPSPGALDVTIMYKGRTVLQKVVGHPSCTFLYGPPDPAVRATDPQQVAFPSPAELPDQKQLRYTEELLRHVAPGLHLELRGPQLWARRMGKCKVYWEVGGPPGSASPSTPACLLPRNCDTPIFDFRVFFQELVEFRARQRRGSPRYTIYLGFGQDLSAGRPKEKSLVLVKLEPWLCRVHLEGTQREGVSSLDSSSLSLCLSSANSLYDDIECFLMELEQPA

In a further experiment the target is T8, eGFP-IRF9 (UniProt Q00978).
T8 sequence: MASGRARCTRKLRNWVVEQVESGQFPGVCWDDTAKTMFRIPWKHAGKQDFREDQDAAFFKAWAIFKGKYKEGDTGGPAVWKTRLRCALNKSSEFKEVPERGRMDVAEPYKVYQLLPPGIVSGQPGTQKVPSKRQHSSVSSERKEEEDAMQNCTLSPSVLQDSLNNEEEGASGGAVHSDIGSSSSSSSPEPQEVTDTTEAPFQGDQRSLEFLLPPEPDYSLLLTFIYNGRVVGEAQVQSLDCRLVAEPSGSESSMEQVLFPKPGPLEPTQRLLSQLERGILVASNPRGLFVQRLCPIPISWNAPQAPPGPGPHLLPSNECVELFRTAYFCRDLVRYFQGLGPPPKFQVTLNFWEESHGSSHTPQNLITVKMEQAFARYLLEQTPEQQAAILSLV

Experiment [6] addresses T9, eGFP-fused IRF3 DNA-binding domain (aa 1 to 113), in vitro translated (UniProt Q14653).
T9 sequence: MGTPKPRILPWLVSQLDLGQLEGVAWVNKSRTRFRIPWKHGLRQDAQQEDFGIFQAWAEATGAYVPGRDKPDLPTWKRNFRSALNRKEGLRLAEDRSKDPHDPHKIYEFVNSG

Substitutions are numbered along the chain they refer to. These are yes or no findings as the source states them, for the method shown. Binding seen in cells or lysates may run through a third protein. For part of these data: Binding calls can cover weak binding; strength is not graded here. Where a sequence is shown, tags or fusion partners need not be part of it.

In the case of “3×FLAG-tagged NSs of sandfly fever Sicilian virus (SFSV)”, the binding result with eGFP-IRF2 is given as “no binding”; in experiment [1] it was “binds”; in experiment [2] it was “no binding”; in experiment [3], “binds”; in experiment [4], “binds”; in experiment [5], “binds”. In addition, the binding entry with eGFP-IRF7 was “no binding”; with eGFP-IRF9, “no binding”; in [6], “binds”.
